# For at least one entry, the source does not settle the construct or the ends of the probe. Where a protein sequence is shown, tags need not be part of it.
# Experiments:
# [1] = biological target: T1, ELF5 Δ33 del1-33 (UniProt Q9UKW6); test: EMSA; details: 200 ng protein in 20 ul; 10 mM EDTA, 50 mM DTT, 100 mM Tris pH 7.5, 1 M NaCl, 1 mg/ml BSA (probably stock concentrations); recombinant protein; residues 34-265; protein details: His6 (pQE-30); label: 32P 5' end
# T1 sequence (looked up): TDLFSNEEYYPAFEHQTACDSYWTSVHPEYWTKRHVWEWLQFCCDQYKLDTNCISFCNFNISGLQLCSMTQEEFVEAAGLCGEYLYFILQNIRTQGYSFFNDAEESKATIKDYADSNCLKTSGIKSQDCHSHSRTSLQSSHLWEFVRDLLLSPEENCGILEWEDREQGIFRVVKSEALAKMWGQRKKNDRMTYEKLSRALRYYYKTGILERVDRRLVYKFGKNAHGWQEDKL
# [2] = biological target: T1, ELF5 Δ33 del1-33; test: competition with a labelled probe; details: 100-fold excess unlabelled, against labelled N1; recombinant protein; residues 34-265; protein details: His6 (pQE-30); label: 32P 5' end
sequence,measurement,setting,value
CCACCAGGAAAGAAAACACCG (double strand) [MUC4 -216 Ets wt],binding result,[1],binds
same,binding result,[2],binds
